Some of these results come from one statement about several compounds together.
Biological target: T1, KRAS protein (His-tagged GDP-loaded G12D 1-169) (Homo sapiens, UniProt P01116, G12D)
T1 construct: His-tagged GDP-loaded G12D 1-169
Test: Covalent modification of KRAS protein, intact-protein LC-MS
Assay type: binding
Conditions: assayed under comparable conditions as K-Ras G12S
Outline: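 Percent covalent modification derives from deconvoluted intact-mass intensities of compound-adducted versus unmodified KRAS, measured by LC-ESI-MS. Before analysis, ~2 µM GDP-loaded His-KRAS 1-169 was exposed to compound for 24 h at room temperature and acidified with formic acid.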

Labeling of K-Ras G12D, essentially no detectable labeling:
Cc1nc(C)n(C(=O)N2CC3(C2)CN(c2nc(OC[C@@]45CCCN4C[C@H](F)C5)nc4c(F)c(-c5ccc(F)c6sc(N)c(C#N)c56)c(Cl)cc24)CCO3)n1 [Compound A283, 2-amino-4-(6-chloro-4-(2-(3,5-dimethyl-1H-1,2,4-triazole-1-carbonyl)-5-oxa-2,8-diazaspiro[3.5]nonan-8-yl)-8-fluoro-2-(((2R,7aS)-2-fluorotetrahydro-1H-pyrrolizin-7a(5H)-yl)methoxy)quinazolin-7-yl)-7-fluorobenzo[b]thiophene-3-carbonitrile]
N#Cc1c(N)sc2c(F)ccc(-c3c(Cl)cc4c(N5CC6(CCCCN(C(=O)n7cncn7)C6)C5)nc(OC[C@@]56CCCN5C[C@H](F)C6)nc4c3F)c12 [Compound A285, 4-(4-(6-(1H-1,2,4-triazole-1-carbonyl)-2,6-diazaspiro[3.6]decan-2-yl)-6-chloro-8-fluoro-2-(((2R,7aS)-2-fluorotetrahydro-1H-pyrrolizin-7a(5H)-yl)methoxy)quinazolin-7-yl)-2-amino-7-fluorobenzo[b]thiophene-3-carbonitrile]
N#Cc1c(N)sc2c(F)ccc(-c3c(Cl)cc4c(N5CCCCC6(CN(C(=O)n7cncn7)C6)C5)nc(OC[C@@]56CCCN5C[C@H](F)C6)nc4c3F)c12 [Compound A295, 4-(4-(2-(1H-1,2,4-triazole-1-carbonyl)-2,6-diazaspiro[3.6]decan-6-yl)-6-chloro-8-fluoro-2-(((2R,7aS)-2-fluorotetrahydro-1H-pyrrolizin-7a(5H)-yl)methoxy)quinazolin-7-yl)-2-amino-7-fluorobenzo[b]thiophene-3-carbonitrile]
CC1(C)CN(c2nc(OC[C@@]34CCCN3C[C@H](F)C4)nc3c(F)c(-c4ccc(F)c5sc(N)c(C#N)c45)c(Cl)cc23)CC2(CN(C(=O)n3cncn3)C2)O1 [Compound A296, 2-amino-4-(6-chloro-4-(6,6-dimethyl-2-(1H-1,2,4-triazole-1-carbonyl)-5-oxa-2,8-diazaspiro[3.5]nonan-8-yl)-8-fluoro-2-(((2R,7aS)-2-fluorotetrahydro-1H-pyrrolizin-7a(5H)-yl)methoxy)quinazolin-7-yl)-7-fluorobenzo[b]thiophene-3-carbonitrile]
C#Cc1c(F)ccc2cc(O)cc(-c3ncc4c(N5CCOCC6(CN(C(=O)n7cnc(C)n7)C6)C5)nc(OC[C@@]56CCCN5C[C@H](F)C6)nc4c3F)c12 [Compound A298, (9-(7-(8-ethynyl-7-fluoro-3-hydroxynaphthalen-1-yl)-8-fluoro-2-(((2R,7aS)-2-fluorotetrahydro-1H-pyrrolizin-7a(5H)-yl)methoxy)pyrido[4,3-d]pyrimidin-4-yl)-6-oxa-2,9-diazaspiro[3.6]decan-2-yl)(3-methyl-1H-1,2,4-triazol-1-yl)methanone]
Cc1ncn(C(=O)N2CCCC(Oc3nc(OC[C@@]45CCCN4C[C@H](F)C5)nc4c(F)c(-c5ccc(F)c6sc(N)c(C#N)c56)c(Cl)cc34)C2)n1 (stereo partly drawn) [Compound A302, 2-amino-4-(6-chloro-8-fluoro-2-(((2R,7aS)-2-fluorotetrahydro-1H-pyrrolizin-7a(5H)-yl)methoxy)-4-((1-(3-methyl-1H-1,2,4-triazole-1-carbonyl)piperidin-3-yl)oxy)quinazolin-7-yl)-7-fluorobenzo[b]thiophene-3-carbonitrile]
Cc1ncn(C(=O)N2CC3CCN(c4nc(OC[C@@]56CCCN5C[C@H](F)C6)nc5c(F)c(-c6ccc(F)c7sc(N)c(C#N)c67)c(Cl)cc45)C3C2)n1 (stereo partly drawn) [Compound A304, 2-amino-4-(6-chloro-8-fluoro-2-(((2R,7aS)-2-fluorotetrahydro-1H-pyrrolizin-7a(5H)-yl)methoxy)-4-(5-(3-methyl-1 H-1,2,4-triazole-1-carbonyl)hexahydropyrrolo[3,4-b]pyrrol-1(2H)-yl)quinazolin-7-yl)-7-fluorobenzo[b]thiophene-3-carbonitrile]
